From PubChem BioAssay AID248 (DTP/NCI, 2004)
The list is a part of this screen's results and no random one: it gathers some chemical classes. Not every dose and run of a compound is shown. T/C: endpoint of the treated group in % of that of the vehicle group. For survival time, the PubChem record calls one and a half times the control and up active, and a quarter to a half above the control has no call in these data; cut-offs in other NCI protocols can differ. Some entries show no survivor count and are marked so; the dose need not have been tolerated. Schedule codes are those of the source, taken here to give the interval after Q, in days (D) or hours (H), and the number of doses after X. Some entries were tested several times; the results are listed from low to high. Some schedules carry Z or #; the key to these is not given.

System: L1210 leukemia ip in BDF1 mice, survival T/C
Assay: NCI In Vivo Anticancer Drug Screen. Data for tumor model L1210 Leukemia (intraperitoneal) in B6D2F1 (BDF1) mice
Conditions: T/C endpoint: mean survival time, higher T/C = longer survival

## NC(Cc1ccccc1N(CCCl)CCCl)C(=O)O (stereo unspecified)
dose: 1.6 mg/kg/injection, schedule: Q01DX009 (sc), vehicle: saline
  T/C: 132 % of control [survivor count not shown]
dose: 1.6 mg/kg/injection, schedule: Q03HX008 (ip), vehicle: saline
  T/C: 117 % of control [survivor count not shown]
dose: 1.75 mg/kg/injection, schedule: Q01DX001 (ip), vehicle: carboxymethylcellulose (CMC)
  T/C: 112 [survivor count not shown] and 131 % of control [survivor count not shown]
dose: 1.75 mg/kg/injection, schedule: Q07DX Z (ip), vehicle: carboxymethylcellulose (CMC)
  T/C: 178 % of control [survivor count not shown]
dose: 2.0 mg/kg/injection, schedule: Q01DX001 (ip), vehicle: saline
  T/C: 137 % of control [survivor count not shown]
dose: 2.0 mg/kg/injection, schedule: Q01DX006 (iv), vehicle: carboxymethylcellulose (CMC)
  T/C: 111 % of control [survivor count not shown]
dose: 2.0 mg/kg/injection, schedule: Q01DX010 (ip), vehicle: saline
  T/C: 94 % of control [survivor count not shown]
dose: 2.0 mg/kg/injection, schedule: Q01DX Z (im), vehicle: carboxymethylcellulose (CMC)
  T/C: 129 % of control [survivor count not shown]
dose: 2.0 mg/kg/injection, schedule: Q01DX Z (ip), vehicle: carboxymethylcellulose (CMC)
  T/C: 124 % of control [survivor count not shown]
dose: 2.0 mg/kg/injection, schedule: Q01DX Z (ip), vehicle: methylcellulose (MC)
  T/C: 119 % of control [survivor count not shown]
dose: 2.0 mg/kg/injection, schedule: Q01DX Z (oral), vehicle: carboxymethylcellulose (CMC)
  T/C: 92 % of control [survivor count not shown]
dose: 2.0 mg/kg/injection, schedule: Q01DX Z (sc), vehicle: carboxymethylcellulose (CMC)
  T/C: 140 % of control [survivor count not shown]
dose: 2.0 mg/kg/injection, schedule: Q03HX016 (ip), vehicle: saline
  T/C: 125 % of control [survivor count not shown]
dose: 2.0 mg/kg/injection, schedule: Q03HX024 (ip), vehicle: saline
  T/C: 148 % of control [survivor count not shown]
dose: 2.0 mg/kg/injection, schedule: Q03HX024 (oral), vehicle: saline
  T/C: 115 % of control [survivor count not shown]
dose: 2.0 mg/kg/injection, schedule: Q04DX003 (ip), vehicle: saline
  T/C: 198 % of control [survivor count not shown]
dose: 2.0 mg/kg/injection, schedule: Q04DX003 (oral), vehicle: saline
  T/C: 115 % of control [survivor count not shown]
dose: 2.0 mg/kg/injection, schedule: Q08DX002 (ip), vehicle: saline
  T/C: 129 [survivor count not shown] and 223 % of control [survivor count not shown]
dose: 2.0 mg/kg/injection, schedule: Q08DX002 (oral), vehicle: saline
  T/C: 112 % of control [survivor count not shown]
dose: 2.4 mg/kg/injection, schedule: Q03HX024 (ip), vehicle: saline
  T/C: 130 % of control [survivor count not shown]
dose: 2.4 mg/kg/injection, schedule: Q04DX003 (ip), vehicle: saline
  T/C: 161 % of control [survivor count not shown]
dose: 2.8 mg/kg/injection, schedule: Q01DX001 (sc), vehicle: saline
  T/C: 97 % of control [survivor count not shown]
dose: 3.2 mg/kg/injection, schedule: Q01DX001 (ip), vehicle: saline
  T/C: 130 % of control [survivor count not shown]
dose: 3.2 mg/kg/injection, schedule: Q01DX001 (oral), vehicle: saline
  T/C: 104 % of control [survivor count not shown]
dose: 3.2 mg/kg/injection, schedule: Q01DX009 (sc), vehicle: saline
  T/C: 164 % of control [survivor count not shown]
dose: 3.2 mg/kg/injection, schedule: Q03HX008 (ip), vehicle: saline
  T/C: 124 % of control [survivor count not shown]
dose: 3.5 mg/kg/injection, schedule: Q01DX001 (ip), vehicle: carboxymethylcellulose (CMC)
  T/C: 146 [survivor count not shown], 151 [survivor count not shown], 238 % of control [survivor count not shown]
dose: 3.5 mg/kg/injection, schedule: Q07DX Z (ip), vehicle: carboxymethylcellulose (CMC)
  T/C: 236 [survivor count not shown] and 247 % of control [survivor count not shown]
dose: 4.0 mg/kg/injection, schedule: Q01DX001 (ip), vehicle: saline
  T/C: 249 % of control [survivor count not shown]
dose: 4.0 mg/kg/injection, schedule: Q01DX006 (iv), vehicle: carboxymethylcellulose (CMC)
  T/C: 137 [survivor count not shown] and 177 % of control [survivor count not shown]
dose: 4.0 mg/kg/injection, schedule: Q01DX Z (im), vehicle: carboxymethylcellulose (CMC)
  T/C: 88 [survivor count not shown] and 137 % of control [survivor count not shown]
dose: 4.0 mg/kg/injection, schedule: Q01DX Z (oral), vehicle: carboxymethylcellulose (CMC)
  T/C: 86 % of control [survivor count not shown]
dose: 4.0 mg/kg/injection, schedule: Q01DX Z (sc), vehicle: carboxymethylcellulose (CMC)
  T/C: 107 [survivor count not shown] and 124 % of control [survivor count not shown]
dose: 4.0 mg/kg/injection, schedule: Q03HX016 (ip), vehicle: saline
  T/C: 141 [survivor count not shown] and 244 % of control [survivor count not shown]
dose: 4.0 mg/kg/injection, schedule: Q03HX024 (ip), vehicle: saline
  T/C: 275 % of control [survivor count not shown]
dose: 4.0 mg/kg/injection, schedule: Q03HX024 (oral), vehicle: saline
  T/C: 117 % of control [survivor count not shown]
dose: 4.0 mg/kg/injection, schedule: Q04DX003 (ip), vehicle: saline
  T/C: 119 % of control [survivor count not shown]
dose: 4.0 mg/kg/injection, schedule: Q04DX003 (oral), vehicle: saline
  T/C: 137 % of control [survivor count not shown]
dose: 4.0 mg/kg/injection, schedule: Q08DX002 (ip), vehicle: saline
  T/C: 201 [survivor count not shown] and 207 % of control [survivor count not shown]
dose: 4.0 mg/kg/injection, schedule: Q08DX002 (oral), vehicle: saline
  T/C: 100 % of control [survivor count not shown]
dose: 5.6 mg/kg/injection, schedule: Q01DX001 (sc), vehicle: saline
  T/C: 122 % of control [survivor count not shown]
dose: 6.4 mg/kg/injection, schedule: Q01DX001 (ip), vehicle: saline
  T/C: 198 % of control [survivor count not shown]
dose: 6.4 mg/kg/injection, schedule: Q01DX001 (oral), vehicle: saline
  T/C: 112 % of control [survivor count not shown]
dose: 6.4 mg/kg/injection, schedule: Q03HX008 (ip), vehicle: saline
  T/C: 144 % of control [survivor count not shown]
dose: 7.0 mg/kg/injection, schedule: Q01DX001 (ip), vehicle: carboxymethylcellulose (CMC)
  T/C: 156 [survivor count not shown] and 162 % of control [survivor count not shown]
dose: 8.0 mg/kg/injection, schedule: Q01DX001 (oral), vehicle: saline
  T/C: 108 % of control [survivor count not shown]
dose: 8.0 mg/kg/injection, schedule: Q01DX006 (iv), vehicle: carboxymethylcellulose (CMC)
  T/C: 101 % of control [survivor count not shown]
dose: 8.0 mg/kg/injection, schedule: Q03HX008 (ip), vehicle: saline
  T/C: 232 % of control [survivor count not shown]
dose: 8.0 mg/kg/injection, schedule: Q03HX008 (oral), vehicle: saline
  T/C: 114 % of control [survivor count not shown]
dose: 8.0 mg/kg/injection, schedule: Q03HX016 (ip), vehicle: saline
  T/C: 203 % of control [survivor count not shown]
dose: 8.0 mg/kg/injection, schedule: Q03HX016 (oral), vehicle: saline
  T/C: 119 % of control [survivor count not shown]
dose: 8.0 mg/kg/injection, schedule: Q03HX024 (oral), vehicle: saline
  T/C: 148 % of control [survivor count not shown]
dose: 8.0 mg/kg/injection, schedule: Q04DX003 (oral), vehicle: saline
  T/C: 116 % of control [survivor count not shown]
dose: 8.0 mg/kg/injection, schedule: Q08DX002 (ip), vehicle: saline
  T/C: 205 % of control [survivor count not shown]
dose: 8.0 mg/kg/injection, schedule: Q08DX002 (oral), vehicle: saline
  T/C: 121 % of control [survivor count not shown]
dose: 11.2 mg/kg/injection, schedule: Q01DX001 (sc), vehicle: saline
  T/C: 138 % of control [survivor count not shown]
dose: 12.8 mg/kg/injection, schedule: Q01DX001 (ip), vehicle: saline
  T/C: 319 % of control [survivor count not shown]
dose: 12.8 mg/kg/injection, schedule: Q01DX001 (oral), vehicle: saline
  T/C: 127 % of control [survivor count not shown]
dose: 12.8 mg/kg/injection, schedule: Q03HX008 (ip), vehicle: saline
  T/C: 264 % of control [survivor count not shown]
dose: 14.0 mg/kg/injection, schedule: Q01DX001 (ip), vehicle: carboxymethylcellulose (CMC)
  T/C: 93 % of control [survivor count not shown]
dose: 28.0 mg/kg/injection, schedule: Q01DX001 (ip), vehicle: carboxymethylcellulose (CMC)
  T/C: 87 [survivor count not shown] and 94 % of control [survivor count not shown]
